Patent publication US20030153081A1 (priority 1999, published 2003)
For part of these data: Strings that start with PEPTIDE1 are HELM notation: dots part the residues, brackets hold end groups and non-standard residues.

Tests used:
[1] = general procedure: Fmoc solid-phase peptide synthesis; Gly-Wang resin; HBTU/HOBt; conditions: whole synthesis, scale 0.03 mmol
[2] = general procedure: Fmoc solid-phase peptide synthesis; preloaded L-Pro-2-chlorotrityl resin; HBTU/HOBt; conditions: whole synthesis, scale 0.1 mmol
[3] = HPLC analysis, elution monitored at 220-230 nm

Row | Substance | final HPLC purity [1, 3] | isolated mass ([1]; overall) | isolated yield ([1]; overall) | final HPLC purity [2, 3] | isolated mass ([2]; overall) | isolated yield ([2]; overall)
1 | PEPTIDE1{M.R.R.A.H.H.R.R.R.R.A.S.H.R.R.M.R.G.G}$$$$V2.0 | >95% | 65 mg | 80% | – | – | –
2 | NH2—Met—Ala—Pro—Lys—Arg—Lys—Ser—Gly—Val—Ser—Lys—Cys—Glu—Thr—Lys—Cys—Thr—Pro—Pro—OH (MAPKRKSGVSKCETKCTPP; printed: Met—Ala—Pro—Lys—Arg—Lys—Ser—Gly—Val—Ser—Lys—Cys—Glu—Thr—Lys—Cys—Thr—Pro—Pro—) | – | – | – | >95% | 32 mg | 15%
